Data on three molecules can be found in patent publication US20120213771A1.

Positions count from the first letter of the chain named. No constants are given. Whether binding was seen depends on the method and setting. A result given as binding can be weak or reduced; the word gives no strength.

B1: 1G5-1B9 (antibody, V domains shown)
VH: QVQLVESGGGVVQPGRSLRLSCAASGFSFSSYGMHWVRQAPGKGLEWVALLWYDGSHKDFADSVKGRFTISRDNSKNTLDLQMNSLRAEDTAVYYCAREGLAVPGHWYFDLWGRGTLVTVSS
VL: AIQLTQSPSSLSASVGDRVTITCRASQGISSALAWYQQKPGKAPKLLIYDASSLESGVPSRFSGSGSGTDFTLTISSLQPEDFATYYCQQFNTYPRTFGQGTKVEIK
B2: 2C2-1A10 (antibody, V domains shown)
VH: QVQLVESGGGVVQPGRSLRLSCAASGFTFSSYDIHWVRQAPGKGLEWVAVIWNDGSNKYYADSVKGRFTISRDNSTNSLFLQMNSLRAEDTAVYYCVGGTADLEHWDQGTLVTVSS
VL: DIQMTQSPSSLSASVGDRVTITCRASQGISSWLAWYQQKPEKAPKSLIYAASSLQSGVPSRFSGSGSGTDFTLTISSLQPEDFATYYCQQYNSYPLTFGGGTKVEIK
B3: 2G9-1D11 (antibody, V domains shown)
VH: B2 VH with F29L, Y32H, G98R
VL: B2 VL

The test deals with rhesus macaque CD27 (rhesus macaque). In words: hybridoma screen for cross-reactivity.
With B1, the binding result is reported as “binds”. Turning to B2, the binding entry is given as “binds”.

As to B3, the binding result is “binds”.
